From the supplement of paper PMC10849652
Some of the results follow.

By UniProt entry, the sequences of proteins in these tests, tags left out. Where a name states a change or a piece, a line headed by the entry shows the natural chain unless it says otherwise.
UniProt O75347: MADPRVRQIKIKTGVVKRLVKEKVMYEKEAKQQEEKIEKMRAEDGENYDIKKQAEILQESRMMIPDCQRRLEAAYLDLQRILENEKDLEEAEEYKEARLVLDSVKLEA
UniProt Q99426: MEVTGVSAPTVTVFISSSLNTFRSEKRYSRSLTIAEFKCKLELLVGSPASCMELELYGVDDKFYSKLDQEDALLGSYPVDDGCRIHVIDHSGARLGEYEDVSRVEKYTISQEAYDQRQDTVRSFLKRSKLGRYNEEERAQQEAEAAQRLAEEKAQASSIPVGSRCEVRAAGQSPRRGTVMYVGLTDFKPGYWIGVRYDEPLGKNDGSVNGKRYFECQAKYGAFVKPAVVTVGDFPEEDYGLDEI
UniProt P02787, whole entry, looked up: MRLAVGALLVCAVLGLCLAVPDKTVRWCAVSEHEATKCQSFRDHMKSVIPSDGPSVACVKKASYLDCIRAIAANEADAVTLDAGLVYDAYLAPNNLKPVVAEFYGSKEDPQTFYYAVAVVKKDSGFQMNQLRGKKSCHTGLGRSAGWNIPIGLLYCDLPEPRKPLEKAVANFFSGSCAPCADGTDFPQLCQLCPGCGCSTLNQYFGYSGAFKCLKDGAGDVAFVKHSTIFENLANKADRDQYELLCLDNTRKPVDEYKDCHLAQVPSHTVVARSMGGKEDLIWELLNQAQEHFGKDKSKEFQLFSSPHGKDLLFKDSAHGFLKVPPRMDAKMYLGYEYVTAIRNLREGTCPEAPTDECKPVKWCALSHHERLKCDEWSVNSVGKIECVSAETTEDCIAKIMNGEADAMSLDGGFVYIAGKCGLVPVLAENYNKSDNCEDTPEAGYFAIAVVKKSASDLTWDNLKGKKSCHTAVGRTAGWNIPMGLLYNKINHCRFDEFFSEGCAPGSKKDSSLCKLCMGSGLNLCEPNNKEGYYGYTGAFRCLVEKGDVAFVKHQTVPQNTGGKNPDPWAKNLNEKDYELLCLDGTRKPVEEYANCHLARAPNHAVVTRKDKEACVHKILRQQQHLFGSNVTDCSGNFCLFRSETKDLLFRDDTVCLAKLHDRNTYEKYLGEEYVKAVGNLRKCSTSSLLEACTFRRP
UniProt O14925: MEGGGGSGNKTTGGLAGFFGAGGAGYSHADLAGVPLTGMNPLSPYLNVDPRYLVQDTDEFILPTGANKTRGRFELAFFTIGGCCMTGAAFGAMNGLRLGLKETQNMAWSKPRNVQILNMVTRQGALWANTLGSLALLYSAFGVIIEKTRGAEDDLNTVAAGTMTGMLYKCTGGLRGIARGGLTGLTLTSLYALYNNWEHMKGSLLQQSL
UniProt Q9NU19: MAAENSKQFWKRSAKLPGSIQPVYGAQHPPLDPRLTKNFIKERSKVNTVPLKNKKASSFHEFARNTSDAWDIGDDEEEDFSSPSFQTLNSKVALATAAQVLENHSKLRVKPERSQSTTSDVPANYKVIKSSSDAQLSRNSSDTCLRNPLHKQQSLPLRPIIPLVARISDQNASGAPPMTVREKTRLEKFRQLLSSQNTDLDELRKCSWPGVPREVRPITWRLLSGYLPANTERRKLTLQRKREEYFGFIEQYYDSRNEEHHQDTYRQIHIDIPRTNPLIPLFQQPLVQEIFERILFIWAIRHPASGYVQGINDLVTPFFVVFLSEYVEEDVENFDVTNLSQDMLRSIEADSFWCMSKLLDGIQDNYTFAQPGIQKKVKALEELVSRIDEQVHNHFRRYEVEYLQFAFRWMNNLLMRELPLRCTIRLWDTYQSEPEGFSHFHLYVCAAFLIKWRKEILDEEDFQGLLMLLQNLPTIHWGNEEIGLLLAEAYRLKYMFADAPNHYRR
UniProt P07996: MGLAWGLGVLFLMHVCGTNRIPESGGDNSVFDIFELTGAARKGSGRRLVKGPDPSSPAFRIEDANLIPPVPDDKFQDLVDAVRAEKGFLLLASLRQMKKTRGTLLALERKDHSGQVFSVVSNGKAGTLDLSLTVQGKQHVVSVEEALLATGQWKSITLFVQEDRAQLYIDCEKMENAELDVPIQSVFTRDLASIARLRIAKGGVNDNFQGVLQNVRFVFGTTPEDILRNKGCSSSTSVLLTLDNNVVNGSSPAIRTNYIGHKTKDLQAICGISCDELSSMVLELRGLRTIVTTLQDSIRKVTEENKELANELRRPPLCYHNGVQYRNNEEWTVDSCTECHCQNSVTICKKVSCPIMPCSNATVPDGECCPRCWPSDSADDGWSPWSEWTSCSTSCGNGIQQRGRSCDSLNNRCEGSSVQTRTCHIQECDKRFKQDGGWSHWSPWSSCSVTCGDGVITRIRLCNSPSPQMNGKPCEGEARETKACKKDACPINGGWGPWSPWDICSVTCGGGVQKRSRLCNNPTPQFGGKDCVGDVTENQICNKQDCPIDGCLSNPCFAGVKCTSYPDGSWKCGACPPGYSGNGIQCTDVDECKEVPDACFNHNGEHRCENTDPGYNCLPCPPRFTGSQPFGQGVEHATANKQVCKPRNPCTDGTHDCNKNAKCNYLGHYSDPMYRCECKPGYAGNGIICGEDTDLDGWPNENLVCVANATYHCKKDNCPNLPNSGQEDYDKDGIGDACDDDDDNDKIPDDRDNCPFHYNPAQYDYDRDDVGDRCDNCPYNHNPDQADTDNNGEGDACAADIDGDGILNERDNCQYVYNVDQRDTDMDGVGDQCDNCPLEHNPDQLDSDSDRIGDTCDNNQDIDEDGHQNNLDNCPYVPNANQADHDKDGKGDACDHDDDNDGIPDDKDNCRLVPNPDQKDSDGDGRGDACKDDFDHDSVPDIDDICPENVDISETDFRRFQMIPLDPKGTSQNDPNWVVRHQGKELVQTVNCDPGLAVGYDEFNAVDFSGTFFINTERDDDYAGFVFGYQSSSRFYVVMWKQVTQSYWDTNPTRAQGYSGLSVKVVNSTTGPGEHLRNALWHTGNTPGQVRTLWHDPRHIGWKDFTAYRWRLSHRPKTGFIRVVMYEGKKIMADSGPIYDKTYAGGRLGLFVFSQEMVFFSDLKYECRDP
UniProt Q3ZCQ8: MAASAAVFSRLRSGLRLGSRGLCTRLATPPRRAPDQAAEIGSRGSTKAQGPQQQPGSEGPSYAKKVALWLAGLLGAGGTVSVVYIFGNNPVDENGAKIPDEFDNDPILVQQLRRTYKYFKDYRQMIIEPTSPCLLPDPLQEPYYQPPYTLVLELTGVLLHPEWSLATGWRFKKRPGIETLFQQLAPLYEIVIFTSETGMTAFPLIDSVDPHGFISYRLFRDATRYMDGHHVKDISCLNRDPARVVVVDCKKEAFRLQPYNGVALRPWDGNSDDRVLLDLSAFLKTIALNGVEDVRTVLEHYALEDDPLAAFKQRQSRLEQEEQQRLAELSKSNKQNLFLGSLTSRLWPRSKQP
UniProt Q5JTD0: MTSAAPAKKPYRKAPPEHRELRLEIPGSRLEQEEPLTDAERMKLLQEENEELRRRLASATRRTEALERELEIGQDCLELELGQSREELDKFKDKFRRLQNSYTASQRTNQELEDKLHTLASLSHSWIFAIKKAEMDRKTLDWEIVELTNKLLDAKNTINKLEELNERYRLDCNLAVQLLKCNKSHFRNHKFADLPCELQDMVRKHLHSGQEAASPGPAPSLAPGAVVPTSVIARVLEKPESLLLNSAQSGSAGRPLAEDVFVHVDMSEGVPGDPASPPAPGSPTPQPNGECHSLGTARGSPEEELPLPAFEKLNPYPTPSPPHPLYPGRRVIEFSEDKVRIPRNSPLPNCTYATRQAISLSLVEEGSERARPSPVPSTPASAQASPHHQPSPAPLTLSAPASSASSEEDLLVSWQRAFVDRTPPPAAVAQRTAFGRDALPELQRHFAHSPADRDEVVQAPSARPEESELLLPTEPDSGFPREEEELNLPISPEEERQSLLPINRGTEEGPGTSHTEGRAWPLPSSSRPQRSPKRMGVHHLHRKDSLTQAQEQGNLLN
UniProt Q9BTF0: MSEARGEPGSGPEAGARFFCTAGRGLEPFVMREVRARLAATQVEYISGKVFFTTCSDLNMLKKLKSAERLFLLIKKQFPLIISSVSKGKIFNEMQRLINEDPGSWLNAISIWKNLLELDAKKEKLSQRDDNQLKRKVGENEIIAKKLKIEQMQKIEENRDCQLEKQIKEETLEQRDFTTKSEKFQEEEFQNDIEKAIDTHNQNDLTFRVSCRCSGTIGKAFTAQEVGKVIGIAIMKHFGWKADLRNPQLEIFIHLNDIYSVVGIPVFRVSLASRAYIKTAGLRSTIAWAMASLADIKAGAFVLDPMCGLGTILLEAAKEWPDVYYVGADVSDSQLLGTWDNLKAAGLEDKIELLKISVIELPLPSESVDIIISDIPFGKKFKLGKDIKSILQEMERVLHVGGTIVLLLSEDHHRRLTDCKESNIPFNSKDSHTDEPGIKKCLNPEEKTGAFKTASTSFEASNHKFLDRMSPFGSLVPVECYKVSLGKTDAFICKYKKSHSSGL
UniProt Q9Y584: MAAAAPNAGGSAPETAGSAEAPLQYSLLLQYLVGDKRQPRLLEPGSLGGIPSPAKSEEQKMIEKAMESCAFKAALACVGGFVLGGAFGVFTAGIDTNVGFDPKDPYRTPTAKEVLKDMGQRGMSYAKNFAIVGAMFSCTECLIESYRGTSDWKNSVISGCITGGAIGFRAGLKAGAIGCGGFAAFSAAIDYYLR
UniProt Q9UPU7: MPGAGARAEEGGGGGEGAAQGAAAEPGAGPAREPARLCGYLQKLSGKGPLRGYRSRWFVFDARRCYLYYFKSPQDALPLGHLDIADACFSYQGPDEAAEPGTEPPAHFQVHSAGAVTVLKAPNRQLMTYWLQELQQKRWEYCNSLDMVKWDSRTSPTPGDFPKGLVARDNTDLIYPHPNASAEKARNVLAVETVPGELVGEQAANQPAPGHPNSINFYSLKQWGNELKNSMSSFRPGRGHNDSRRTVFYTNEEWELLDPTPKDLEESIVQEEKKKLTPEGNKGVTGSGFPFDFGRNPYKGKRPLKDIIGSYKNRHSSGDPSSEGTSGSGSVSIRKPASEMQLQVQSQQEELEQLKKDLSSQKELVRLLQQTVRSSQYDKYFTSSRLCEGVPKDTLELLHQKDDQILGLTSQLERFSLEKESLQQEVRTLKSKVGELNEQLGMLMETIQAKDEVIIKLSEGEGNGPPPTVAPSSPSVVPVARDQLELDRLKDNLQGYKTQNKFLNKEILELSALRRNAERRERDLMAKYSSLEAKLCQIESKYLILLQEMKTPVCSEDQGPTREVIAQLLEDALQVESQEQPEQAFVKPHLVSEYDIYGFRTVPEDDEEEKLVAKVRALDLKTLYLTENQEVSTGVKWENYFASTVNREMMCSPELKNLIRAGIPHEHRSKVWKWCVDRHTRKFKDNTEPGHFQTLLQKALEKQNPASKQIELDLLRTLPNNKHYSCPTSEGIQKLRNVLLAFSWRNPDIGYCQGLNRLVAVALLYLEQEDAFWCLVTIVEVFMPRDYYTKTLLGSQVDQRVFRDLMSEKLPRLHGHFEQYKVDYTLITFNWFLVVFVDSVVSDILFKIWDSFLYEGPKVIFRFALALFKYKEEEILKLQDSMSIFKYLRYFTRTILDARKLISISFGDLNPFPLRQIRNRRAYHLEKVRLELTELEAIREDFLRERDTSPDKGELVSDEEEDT
UniProt P01033: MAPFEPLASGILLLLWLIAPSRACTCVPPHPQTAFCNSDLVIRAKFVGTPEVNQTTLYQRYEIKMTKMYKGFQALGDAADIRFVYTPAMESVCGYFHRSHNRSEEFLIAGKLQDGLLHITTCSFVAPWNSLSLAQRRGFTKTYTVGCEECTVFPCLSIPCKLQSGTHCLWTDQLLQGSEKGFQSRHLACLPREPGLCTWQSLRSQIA
UniProt Q96RS0: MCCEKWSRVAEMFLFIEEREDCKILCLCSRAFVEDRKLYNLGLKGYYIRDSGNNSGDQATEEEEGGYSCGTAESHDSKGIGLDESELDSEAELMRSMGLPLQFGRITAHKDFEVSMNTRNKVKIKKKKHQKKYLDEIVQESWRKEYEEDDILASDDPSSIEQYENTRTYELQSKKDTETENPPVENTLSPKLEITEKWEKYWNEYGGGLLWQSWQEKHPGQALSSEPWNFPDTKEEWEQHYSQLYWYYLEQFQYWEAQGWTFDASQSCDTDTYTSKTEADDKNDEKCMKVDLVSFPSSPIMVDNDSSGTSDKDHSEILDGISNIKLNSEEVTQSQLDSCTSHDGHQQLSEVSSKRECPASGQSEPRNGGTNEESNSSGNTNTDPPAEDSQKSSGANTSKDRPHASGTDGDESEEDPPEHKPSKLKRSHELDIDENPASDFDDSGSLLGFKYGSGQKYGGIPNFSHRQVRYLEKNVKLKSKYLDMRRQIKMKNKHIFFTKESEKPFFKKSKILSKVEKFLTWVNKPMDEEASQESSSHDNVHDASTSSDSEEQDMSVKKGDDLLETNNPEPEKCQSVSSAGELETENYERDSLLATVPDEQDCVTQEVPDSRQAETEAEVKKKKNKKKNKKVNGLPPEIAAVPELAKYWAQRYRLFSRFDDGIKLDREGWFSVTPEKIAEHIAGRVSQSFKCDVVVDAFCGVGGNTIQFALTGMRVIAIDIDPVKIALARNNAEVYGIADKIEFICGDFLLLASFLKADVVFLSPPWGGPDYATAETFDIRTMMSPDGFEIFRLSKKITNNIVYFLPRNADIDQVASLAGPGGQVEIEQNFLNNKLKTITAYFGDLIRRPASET

How the values were obtained:
Test in all cases: log2 fold change, soluble protein after heating vs DMSO (PISA); higher = thermal stabilisation; K562 cells, 10 uM, 30 min; active = over 0.2 and 3.5 SD of the protein, either way, in both replicates (recomputed)
[1] = compound: NC(=O)Nc1cc(-c2cccc(F)c2)sc1C(=O)N[C@H]1CCCNC1
In short: (§1)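 Soluble protein was quantified by TMTpro 16plex LC-MS/MS after channel sums were equalised. It was obtained as the supernatant after 21,000xg for 90 min from pooled aliquots of K562 cells (2×10^6 cells/mL, 10 μM compound, 30 min) heated for 3 min across 48°C-58°C and extracted in PBS with 0.5% NP-40 at 4°C. Thermal stability values are relative to control samples and come from duplicates. They are given as log2 fold changes.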

[2] = compound: NC(=O)c1cnc(N[C@@H]2CCCC[C@@H]2N)nc1Nc1cccc(-n2nccn2)c1
In short: as §1

[3] = compound: NC1(c2ccc(-c3nc4ccn5c(=O)[nH]nc5c4cc3-c3ccccc3)cc2)CCC1
In short: as §1

[4] = compound: NCC(=O)Nc1ccc(-n2nc(C(F)(F)F)cc2-c2ccc3c(ccc4ccccc43)c2)cc1
In short: as §1

[5] = compound: Nc1ccccc1NC(=O)c1ccc(CNC(=O)OCc2cccnc2)cc1 [entinostat]
In short: as §1

[6] = compound: O=C(CCCCCCC(=O)Nc1ccccc1)NO [vorinostat]
In short: as §1

[7] = compound: O=C(CCCCCCNC(=O)c1cnc(N(c2ccccc2)c2ccccc2Cl)nc1)NO [citarinostat]
In short: as §1

[8] = compound: O=C(O)c1ccc2c(c1)nc(Nc1cccc(Cl)c1)c1ccncc12 [silmitasertib]
In short: as §1

[9] = compound: O=C1NC(=O)C(c2cnc3ccccn23)=C1c1cn2c3c(cc(F)cc13)CN(C(=O)N1CCCCC1)CC2
In short: as §1

[10] = compound: c1cc(OCCN2CCCCC2)cc(-c2n[nH]c3ccc(-c4nnc[nH]4)cc23)c1
In short: as §1

[11] = compound: c1cn2cc(-c3ccc4cn[nH]c4c3)nc(Nc3ccc(N4CCOCC4)cc3)c2n1 [entospletinib]
In short: as §1

Measured: log2 fold change

TK2 isoform 6 (UniProt O00142)
inactive: [1] -0.187 | [2] -0.088 | [3] -0.044 | [4] -0.219 | [5] -0.035 | [6] 0.097 | [7] 0.013 | [8] -0.057 | [9] 0.041 | [10] -0.019 | [11] 0.191

TBCA (UniProt O75347)
inactive: [1] -0.015 | [2] 0.039 | [3] 0.049 | [4] 0.02 | [5] -0.041 | [6] -0.076 | [7] -0.033 | [8] -0.038 | [9] -0.057 | [10] 0.046 | [11] 0

TBCB (UniProt Q99426)
inactive: [1] -0.044 | [2] -0.066 | [3] -0.145 | [4] -0.026 | [5] 0.027 | [6] 0.011 | [7] 0.058 | [8] 0.039 | [9] -0.045 | [10] -0.01 | [11] -0.033

TF (UniProt P02787)
inactive: [1] -0.357 | [2] -0.004 | [3] 0.071 | [4] 0.008 | [5] -0.083 | [6] -0.131 | [7] 0.081 | [8] 0.12 | [9] 0.042 | [10] 0.655 | [11] 0.288

TIMM23 (UniProt O14925)
inactive: [1] 0.006 | [2] 0.027 | [3] -0.033 | [4] 0.061 | [5] -0.037 | [6] 0.002 | [7] 0.077 | [8] 0.031 | [9] -0.027 | [10] -0.059 | [11] 0.038

TBC1D22B (UniProt Q9NU19)
inactive: [1] 0.041 | [2] 0.001 | [3] -0.091 | [4] -0.178 | [5] -0.015 | [6] 0.013 | [7] 0.182 | [8] -0.045 | [9] 0.11 | [10] 0.091 | [11] -0.041

TES (UniProt Q9UGI8)
inactive: [1] 0.006 | [2] 0.006 | [3] -0.018 | [4] 0 | [5] -0.012 | [6] -0.004 | [7] 0.044 | [8] -0.022 | [9] -0.019 | [10] -0.011 | [11] -0.004

TCAF1 (UniProt Q9Y4C2)
inactive: [1] -0.002 | [2] -0.051 | [3] -0.131 | [4] -0.07 | [5] 0.024 | [6] 0.011 | [7] 0.049 | [8] 0.104 | [9] -0.032 | [10] -0.096 | [11] 0.063

THBS1 (UniProt P07996)
inactive: [1] 0.003 | [2] 0.004 | [3] 0.001 | [4] 0.01 | [5] -0.067 | [6] 0.156 | [7] -0.079 | [8] 0.242 | [9] 0.045 | [10] 0.192 | [11] 0.176

TIMM50 isoform 2 (UniProt Q3ZCQ8)
inactive: [1] 0.067 | [2] 0.014 | [3] -0.088 | [4] -0.027 | [5] -0.005 | [6] -0.007 | [7] -0.023 | [8] -0.042 | [9] -0.086 | [10] -0.007 | [11] 0.011

TET1 (UniProt Q8NFU7)
inactive: [1] 0.023 | [2] -0.102 | [3] 0.048 | [4] -0.081 | [5] -0.05 | [6] -0.019 | [7] 0.125 | [8] -0.05 | [9] -0.034 | [10] 0.102 | [11] -0.224

TIA1 (UniProt P31483)
inactive: [1] -0.022 | [2] -0.017 | [3] -0.009 | [4] -0.011 | [5] -0.026 | [6] 0.008 | [7] -0.031 | [8] -0.018 | [9] 0.014 | [10] -0.021 | [11] 0.011

2 successive entries already listed, quoted:
TF (UniProt P02787)
inactive: [1] -0.357 | [2] -0.004 | [3] 0.071 | [4] 0.008 | [5] -0.083 | [6] -0.131 | [7] 0.081 | [8] 0.12 | [9] 0.042 | [10] 0.655 | [11] 0.288

TIMM23 (UniProt O14925)
inactive: [1] 0.006 | [2] 0.027 | [3] -0.033 | [4] 0.061 | [5] -0.037 | [6] 0.002 | [7] 0.077 | [8] 0.031 | [9] -0.027 | [10] -0.059 | [11] 0.038

More results:

TJAP1 (UniProt Q5JTD0)
inactive: [1] -0.047 | [2] 0.058 | [3] 0.004 | [4] -0.037 | [5] -0.038 | [6] -0.095 | [7] -0.028 | [8] -0.007 | [9] 0.047 | [10] -0.082 | [11] 0.059

TDRKH (UniProt Q9Y2W6)
inactive: [1] -0.039 | [2] -0.014 | [3] -0.048 | [4] -0.034 | [5] -0.008 | [6] 0.055 | [7] -0.024 | [8] -0.053 | [9] -0.01 | [10] 0.069 | [11] -0.102

THEM6 (UniProt Q8WUY1)
inactive: [1] -0.059 | [2] -0.002 | [3] 0.18 | [4] 0 | [5] 0.002 | [6] -0.05 | [7] 0.053 | [8] 0.031 | [9] 0.02 | [10] 0.012 | [11] -0.024

THUMPD2 (UniProt Q9BTF0)
inactive: [1] -0.014 | [2] -0.03 | [3] -0.004 | [4] 0.03 | [5] -0.015 | [6] 0.063 | [7] -0.039 | [8] -0.015 | [9] 0.032 | [10] -0.094 | [11] 0.051

TIMM22 (UniProt Q9Y584)
inactive: [1] 0.026 | [2] 0.271 | [3] 0 | [4] 0.303 | [5] 0.004 | [6] -0.057 | [7] 0.006 | [8] -0.031 | [9] -0.045 | [10] -0.027 | [11] 0.121

TIMM9 (UniProt Q9Y5J7)
inactive: [1] 0.136 | [2] 0.023 | [3] 0.004 | [4] -0.012 | [5] 0.145 | [6] -0.11 | [7] 0.029 | [8] -0.01 | [9] -0.058 | [10] -0.003 | [11] 0.009

TCF3 (UniProt P15923)
inactive: [1] 0.009 | [2] -0.092 | [3] -0.063 | [4] -0.065 | [5] 0.067 | [6] -0.117 | [7] -0.016 | [8] 0.1 | [9] -0.042 | [10] -0.053 | [11] -0.056

TLE3 isoform 4 (UniProt Q04726)
inactive: [1] 0.028 | [2] -0.026 | [3] -0.006 | [4] 0.021 | [5] -0.048 | [6] 0.037 | [7] 0.034 | [8] -0.015 | [9] -0.063 | [10] 0.008 | [11] -0.007

TDP2 isoform 2 (UniProt O95551)
inactive: [1] -0.043 | [2] -0.025 | [3] -0.174 | [4] -0.085 | [5] 0.108 | [6] 0.068 | [7] 0.046 | [8] 0.004 | [9] -0.008 | [10] 0.012 | [11] -0.02

TBC1D2B (UniProt Q9UPU7)
inactive: [1] -0.002 | [3] 0.038 | [5] -0.072 | [7] 0.067 | [8] -0.041 | [10] -0.063 | [11] -0.008

TFB1M (UniProt Q8WVM0)
inactive: [1] -0.132 | [2] 0.126 | [3] -0.107 | [4] 0.126 | [5] -0.134 | [6] 0.008 | [7] -0.094 | [8] 0.042 | [9] 0.237 | [10] -0.036 | [11] 0.132

THOC3 (UniProt Q96J01)
inactive: [1] 0.011 | [2] 0.034 | [3] -0.038 | [4] 0.012 | [5] -0.048 | [6] 0.014 | [7] 0.027 | [8] -0.018 | [9] -0.021 | [10] -0.003 | [11] 0.002

TIMM8B (UniProt Q9Y5J9)
inactive: [1] 0.176 | [2] 0.008 | [3] -0.097 | [4] 0.034 | [5] 0.016 | [6] -0.593 | [7] 0.034 | [8] -0.118 | [9] -0.045 | [10] 0.072 | [11] 0.05

TIMP1 (UniProt P01033)
inactive: [1] -0.104 | [2] 0.009 | [3] 0.089 | [4] 0.031 | [5] -0.082 | [6] -0.073 | [7] 0.018 | [8] 0.086 | [9] -0.053 | [10] -0.099 | [11] 0.036

TGS1 (UniProt Q96RS0)
inactive: [1] 0.086 | [2] -0.039 | [3] 0.094 | [4] -0.018 | [5] 0.092 | [7] -0.039 | [8] -0.028 | [9] 0.022 | [10] 0.046 | [11] 0.045

TFDP2 (UniProt Q14188)
inactive: [1] -0.038 | [3] -0.159 | [5] 0.129 | [7] 0.077 | [8] -0.035 | [9] -0.119 | [10] -0.091 | [11] -0.183

TGFB1 (UniProt P01137)
inactive: [1] -0.001 | [2] -0.007 | [3] -0.033 | [4] -0.022 | [5] -0.024 | [6] -0.06 | [7] 0.029 | [8] 0.016 | [9] 0.003 | [10] -0.06 | [11] -0.013
